Experimental data reported in the supplement of paper PMC12823440, “Inhibitors supercharge kinase turnover through native proteolytic circuits” (Nature, 2025).
Some of the results follow. The calls rarely recur for the same compound in another form.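 In K562 cells expressing nanoluciferase-fused kinases, luminescence was recorded at 4 h intervals between 2 and 18 h, normalized as percent of control with DMSO at 100% and a positive control at 0%. A significant (2 sigma) signal drop marks a time point as decreased. The authors' rule for a hit is not shown and takes in more than the number of time points.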

By UniProt entry, the sequences of proteins in these tests, tags left out. Where a name states a change or a piece, a line headed by the entry shows the natural chain unless it says otherwise.
UniProt P31749: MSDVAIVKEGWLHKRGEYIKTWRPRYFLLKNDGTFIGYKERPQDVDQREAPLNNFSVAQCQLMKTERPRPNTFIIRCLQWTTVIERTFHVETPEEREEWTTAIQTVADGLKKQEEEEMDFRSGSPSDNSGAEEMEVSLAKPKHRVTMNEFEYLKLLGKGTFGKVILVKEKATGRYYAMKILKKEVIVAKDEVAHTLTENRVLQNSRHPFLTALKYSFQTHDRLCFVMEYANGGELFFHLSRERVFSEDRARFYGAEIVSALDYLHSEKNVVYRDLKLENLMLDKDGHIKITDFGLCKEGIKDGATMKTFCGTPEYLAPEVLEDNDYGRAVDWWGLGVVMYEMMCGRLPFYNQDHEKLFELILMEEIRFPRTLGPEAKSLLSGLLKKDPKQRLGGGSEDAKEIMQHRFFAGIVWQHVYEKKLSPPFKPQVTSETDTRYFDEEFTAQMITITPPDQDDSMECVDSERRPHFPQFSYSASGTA
UniProt Q9UM73: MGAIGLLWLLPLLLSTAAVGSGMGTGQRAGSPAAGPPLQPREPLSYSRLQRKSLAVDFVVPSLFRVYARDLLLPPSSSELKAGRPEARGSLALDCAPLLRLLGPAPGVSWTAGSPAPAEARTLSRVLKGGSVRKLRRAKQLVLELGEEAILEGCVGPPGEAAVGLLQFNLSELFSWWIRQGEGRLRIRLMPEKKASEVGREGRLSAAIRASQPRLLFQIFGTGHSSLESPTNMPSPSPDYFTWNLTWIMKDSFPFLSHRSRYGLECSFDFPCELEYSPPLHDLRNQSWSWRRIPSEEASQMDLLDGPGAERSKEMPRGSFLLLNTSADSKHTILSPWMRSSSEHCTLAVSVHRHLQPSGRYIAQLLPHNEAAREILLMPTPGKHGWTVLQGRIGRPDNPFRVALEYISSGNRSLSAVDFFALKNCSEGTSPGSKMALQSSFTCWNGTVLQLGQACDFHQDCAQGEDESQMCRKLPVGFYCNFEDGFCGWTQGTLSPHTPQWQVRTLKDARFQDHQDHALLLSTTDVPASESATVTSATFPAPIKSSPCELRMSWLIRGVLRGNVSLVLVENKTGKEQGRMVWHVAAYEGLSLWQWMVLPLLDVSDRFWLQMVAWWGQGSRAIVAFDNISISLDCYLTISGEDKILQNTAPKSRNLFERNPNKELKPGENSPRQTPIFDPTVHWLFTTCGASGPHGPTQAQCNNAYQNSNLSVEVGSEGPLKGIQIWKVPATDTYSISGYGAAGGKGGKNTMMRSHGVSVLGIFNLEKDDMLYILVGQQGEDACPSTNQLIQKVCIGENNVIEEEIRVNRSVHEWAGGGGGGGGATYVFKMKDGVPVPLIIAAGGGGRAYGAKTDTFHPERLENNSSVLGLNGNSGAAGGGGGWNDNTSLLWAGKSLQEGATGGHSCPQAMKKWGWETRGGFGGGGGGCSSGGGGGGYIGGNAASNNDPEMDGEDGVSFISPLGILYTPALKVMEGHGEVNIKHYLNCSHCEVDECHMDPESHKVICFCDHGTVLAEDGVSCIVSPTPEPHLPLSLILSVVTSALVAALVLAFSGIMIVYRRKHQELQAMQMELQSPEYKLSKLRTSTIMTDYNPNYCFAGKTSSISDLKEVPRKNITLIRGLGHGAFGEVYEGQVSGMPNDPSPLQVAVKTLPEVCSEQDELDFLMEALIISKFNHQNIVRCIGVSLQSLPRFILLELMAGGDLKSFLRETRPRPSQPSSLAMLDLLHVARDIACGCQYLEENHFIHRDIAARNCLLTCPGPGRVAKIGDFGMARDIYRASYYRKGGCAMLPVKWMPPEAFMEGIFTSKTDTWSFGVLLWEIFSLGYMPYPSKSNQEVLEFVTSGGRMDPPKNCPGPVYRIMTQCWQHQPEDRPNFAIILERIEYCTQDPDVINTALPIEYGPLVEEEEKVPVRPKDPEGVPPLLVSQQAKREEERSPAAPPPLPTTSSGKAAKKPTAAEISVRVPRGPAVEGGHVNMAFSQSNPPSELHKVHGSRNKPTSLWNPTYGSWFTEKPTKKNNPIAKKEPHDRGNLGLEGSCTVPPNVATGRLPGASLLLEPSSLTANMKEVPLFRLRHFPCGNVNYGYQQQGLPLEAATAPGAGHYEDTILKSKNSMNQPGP
UniProt P10398: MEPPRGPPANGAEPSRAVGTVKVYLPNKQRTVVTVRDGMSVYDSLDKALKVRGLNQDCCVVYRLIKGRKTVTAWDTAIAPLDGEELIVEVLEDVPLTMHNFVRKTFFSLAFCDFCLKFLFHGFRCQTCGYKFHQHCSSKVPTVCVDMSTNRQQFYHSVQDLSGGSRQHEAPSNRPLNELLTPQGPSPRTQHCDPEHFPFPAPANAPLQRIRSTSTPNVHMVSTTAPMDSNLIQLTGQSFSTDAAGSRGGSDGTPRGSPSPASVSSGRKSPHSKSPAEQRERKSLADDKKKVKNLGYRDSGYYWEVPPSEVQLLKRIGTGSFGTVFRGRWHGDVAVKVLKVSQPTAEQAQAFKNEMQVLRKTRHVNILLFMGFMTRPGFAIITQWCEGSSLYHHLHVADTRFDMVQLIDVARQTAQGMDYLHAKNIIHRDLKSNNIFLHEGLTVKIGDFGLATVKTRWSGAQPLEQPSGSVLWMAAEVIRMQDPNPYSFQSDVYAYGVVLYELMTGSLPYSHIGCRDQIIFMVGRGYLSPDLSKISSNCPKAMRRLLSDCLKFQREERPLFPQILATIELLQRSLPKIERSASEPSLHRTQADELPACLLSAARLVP
UniProt O14965: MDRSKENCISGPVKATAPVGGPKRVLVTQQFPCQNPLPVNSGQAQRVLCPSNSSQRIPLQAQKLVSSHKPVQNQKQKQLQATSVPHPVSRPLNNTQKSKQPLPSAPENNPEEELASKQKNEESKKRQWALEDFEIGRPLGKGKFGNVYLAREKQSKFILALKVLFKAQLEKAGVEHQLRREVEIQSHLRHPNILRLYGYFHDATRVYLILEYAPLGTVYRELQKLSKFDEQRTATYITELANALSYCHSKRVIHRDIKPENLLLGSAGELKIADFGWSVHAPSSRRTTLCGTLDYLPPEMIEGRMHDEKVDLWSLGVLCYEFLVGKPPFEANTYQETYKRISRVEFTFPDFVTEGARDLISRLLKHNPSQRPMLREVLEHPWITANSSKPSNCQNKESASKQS
UniProt Q96GD4, whole entry: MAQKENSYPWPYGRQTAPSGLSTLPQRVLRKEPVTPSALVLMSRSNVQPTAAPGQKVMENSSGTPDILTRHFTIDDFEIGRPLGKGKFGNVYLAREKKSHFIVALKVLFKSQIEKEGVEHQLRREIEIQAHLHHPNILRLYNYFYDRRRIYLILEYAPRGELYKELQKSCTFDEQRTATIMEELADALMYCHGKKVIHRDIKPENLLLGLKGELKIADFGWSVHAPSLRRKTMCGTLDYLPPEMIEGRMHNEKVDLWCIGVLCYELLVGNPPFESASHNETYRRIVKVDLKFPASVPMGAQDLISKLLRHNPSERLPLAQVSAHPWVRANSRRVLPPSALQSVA
UniProt Q9UQB9: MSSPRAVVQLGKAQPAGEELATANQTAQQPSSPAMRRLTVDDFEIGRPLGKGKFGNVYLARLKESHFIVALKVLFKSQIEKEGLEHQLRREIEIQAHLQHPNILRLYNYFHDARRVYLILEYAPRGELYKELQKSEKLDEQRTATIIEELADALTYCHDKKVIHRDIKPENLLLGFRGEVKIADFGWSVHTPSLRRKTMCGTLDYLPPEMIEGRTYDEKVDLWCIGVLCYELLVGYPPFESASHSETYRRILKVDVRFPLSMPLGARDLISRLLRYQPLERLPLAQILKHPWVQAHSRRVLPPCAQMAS
UniProt P51813: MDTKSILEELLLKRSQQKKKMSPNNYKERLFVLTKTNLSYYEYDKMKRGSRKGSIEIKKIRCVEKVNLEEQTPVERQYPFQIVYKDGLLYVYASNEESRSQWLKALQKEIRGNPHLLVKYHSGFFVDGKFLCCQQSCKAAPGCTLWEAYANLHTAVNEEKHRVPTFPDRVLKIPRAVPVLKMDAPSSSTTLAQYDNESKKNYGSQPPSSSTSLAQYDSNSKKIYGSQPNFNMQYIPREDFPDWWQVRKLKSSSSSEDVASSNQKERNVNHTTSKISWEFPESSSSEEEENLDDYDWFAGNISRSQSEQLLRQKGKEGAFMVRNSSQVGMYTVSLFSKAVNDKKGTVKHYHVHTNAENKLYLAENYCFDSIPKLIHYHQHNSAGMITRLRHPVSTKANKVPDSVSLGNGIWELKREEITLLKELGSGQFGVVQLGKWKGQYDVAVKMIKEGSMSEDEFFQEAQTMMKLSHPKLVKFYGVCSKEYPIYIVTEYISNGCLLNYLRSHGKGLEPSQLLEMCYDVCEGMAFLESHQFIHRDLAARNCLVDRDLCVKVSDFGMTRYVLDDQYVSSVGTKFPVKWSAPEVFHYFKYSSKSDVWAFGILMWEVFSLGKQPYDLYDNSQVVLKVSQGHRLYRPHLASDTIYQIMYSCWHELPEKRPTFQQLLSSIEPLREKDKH
UniProt Q06187: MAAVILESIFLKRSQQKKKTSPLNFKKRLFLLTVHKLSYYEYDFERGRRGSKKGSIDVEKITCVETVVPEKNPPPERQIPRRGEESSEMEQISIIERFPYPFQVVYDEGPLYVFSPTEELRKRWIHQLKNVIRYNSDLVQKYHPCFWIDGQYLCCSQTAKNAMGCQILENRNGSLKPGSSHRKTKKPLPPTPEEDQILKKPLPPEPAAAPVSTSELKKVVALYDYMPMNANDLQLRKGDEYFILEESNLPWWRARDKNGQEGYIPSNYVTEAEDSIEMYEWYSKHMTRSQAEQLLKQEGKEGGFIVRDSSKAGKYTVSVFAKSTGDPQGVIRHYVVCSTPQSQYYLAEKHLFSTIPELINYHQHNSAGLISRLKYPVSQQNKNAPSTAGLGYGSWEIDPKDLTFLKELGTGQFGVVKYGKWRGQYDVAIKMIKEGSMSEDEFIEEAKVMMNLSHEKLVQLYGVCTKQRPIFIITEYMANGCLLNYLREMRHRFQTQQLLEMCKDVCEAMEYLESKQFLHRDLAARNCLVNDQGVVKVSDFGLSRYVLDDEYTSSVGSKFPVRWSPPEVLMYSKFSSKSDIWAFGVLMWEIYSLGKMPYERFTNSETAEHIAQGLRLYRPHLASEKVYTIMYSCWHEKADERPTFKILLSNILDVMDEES
UniProt Q9UQM7, whole entry: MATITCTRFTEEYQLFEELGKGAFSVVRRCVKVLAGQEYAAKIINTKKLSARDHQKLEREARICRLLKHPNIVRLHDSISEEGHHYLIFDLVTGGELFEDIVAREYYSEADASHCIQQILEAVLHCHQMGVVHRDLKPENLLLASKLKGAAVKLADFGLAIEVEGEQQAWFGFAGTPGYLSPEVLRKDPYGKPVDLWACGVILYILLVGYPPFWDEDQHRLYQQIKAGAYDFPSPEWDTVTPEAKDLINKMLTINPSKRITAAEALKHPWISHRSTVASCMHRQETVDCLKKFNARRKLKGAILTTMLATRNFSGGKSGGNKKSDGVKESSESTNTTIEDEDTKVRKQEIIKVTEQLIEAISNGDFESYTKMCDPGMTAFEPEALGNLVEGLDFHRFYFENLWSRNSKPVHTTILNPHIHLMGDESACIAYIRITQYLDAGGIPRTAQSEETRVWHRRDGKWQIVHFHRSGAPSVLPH
UniProt Q15131: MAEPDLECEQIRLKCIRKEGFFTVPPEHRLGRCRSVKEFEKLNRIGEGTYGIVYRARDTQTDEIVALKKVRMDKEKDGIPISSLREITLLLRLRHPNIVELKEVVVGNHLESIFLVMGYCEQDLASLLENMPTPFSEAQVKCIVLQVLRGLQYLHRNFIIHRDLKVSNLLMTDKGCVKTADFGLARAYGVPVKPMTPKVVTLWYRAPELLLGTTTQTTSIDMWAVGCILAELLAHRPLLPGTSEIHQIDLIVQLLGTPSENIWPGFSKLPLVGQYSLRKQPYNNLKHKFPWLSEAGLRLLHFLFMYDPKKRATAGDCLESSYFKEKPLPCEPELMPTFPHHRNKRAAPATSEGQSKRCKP
UniProt Q00526: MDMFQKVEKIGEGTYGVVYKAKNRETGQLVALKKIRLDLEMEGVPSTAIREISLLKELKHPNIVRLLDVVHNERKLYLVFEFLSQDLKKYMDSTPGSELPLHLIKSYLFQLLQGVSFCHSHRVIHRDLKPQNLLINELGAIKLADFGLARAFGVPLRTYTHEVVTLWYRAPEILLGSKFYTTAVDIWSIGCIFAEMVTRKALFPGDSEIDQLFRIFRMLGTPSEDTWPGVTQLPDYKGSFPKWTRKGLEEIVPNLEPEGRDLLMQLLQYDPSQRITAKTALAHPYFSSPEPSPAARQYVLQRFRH
UniProt Q00534, whole entry: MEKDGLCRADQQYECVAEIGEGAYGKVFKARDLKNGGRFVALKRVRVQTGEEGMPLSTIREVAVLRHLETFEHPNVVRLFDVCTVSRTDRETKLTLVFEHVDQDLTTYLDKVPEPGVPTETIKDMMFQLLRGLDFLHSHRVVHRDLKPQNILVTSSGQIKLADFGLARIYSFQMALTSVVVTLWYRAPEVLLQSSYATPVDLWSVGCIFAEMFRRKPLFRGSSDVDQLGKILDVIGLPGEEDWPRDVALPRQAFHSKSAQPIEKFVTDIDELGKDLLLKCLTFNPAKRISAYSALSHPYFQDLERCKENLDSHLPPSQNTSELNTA

Assays:
Experiment in all cases: kinase-Nluc reporter destabilization hit call (1 = scored as downregulated) (binary); higher = compound decreases kinase abundance
Conditions in all cases: K562; 2-18 h
ABL1 = ABL1 (UniProt P00519)
AKT1 = AKT1 (UniProt P31749)
ALK = ALK (UniProt Q9UM73)
ARAF = ARAF (UniProt P10398)
AURKA = AURKA (UniProt O14965)
AURKB = AURKB (UniProt Q96GD4)
AURKC = AURKC (UniProt Q9UQB9)
BLK = BLK (UniProt P51451)
BMX = BMX (UniProt P51813)
BRAF = BRAF (UniProt P15056)
BRAF_V600E = system: BRAF_V600E
BTK = BTK (UniProt Q06187)
CAMK2A = CAMK2A (UniProt Q9UQM7)
CAMK2G = CAMK2G (UniProt Q13555)
CDK10 = CDK10 (UniProt Q15131)
CDK2 = CDK2 (UniProt P24941)
CDK3 = CDK3 (UniProt Q00526)
CDK4 = CDK4 (UniProt P11802)
CDK5 = CDK5 (UniProt Q00535)
CDK6 = CDK6 (UniProt Q00534)

Measured: kinase-Nluc reporter destabilization hit call

N#Cc1ccc2ncnc(NC3CCC(N4CCOCC4)CC3)c2c1 (stereo not given) (10 µM)
inactive: ABL1 = 0 | AKT1 = 0 | ALK 0 | ARAF 0 | AURKA 0 | AURKB 0 | AURKC 0 | BLK 0 | BMX 0 | BRAF 0 | BRAF_V600E 0 | BTK 0 | CAMK2A 0 | CAMK2G 0 | CDK10 = 0 | CDK2 = 0 | CDK3 = 0 | CDK4 = 0 | CDK5 = 0 | CDK6 = 0

COc1cc([N+](=O)[O-])ccc1S(=O)(=O)N1C[C@@H](CN2CCN(c3ccccn3)CC2)[C@H](c2cccc(F)c2)C1 (relative stereo) (10 µM)
inactive: ABL1 = 0 | AKT1 = 0 | ALK 0 | ARAF 0 | AURKA 0 | AURKB 0 | AURKC 0 | BLK 0 | BMX 0 | BRAF 0 | BRAF_V600E 0 | BTK 0 | CAMK2A 0 | CAMK2G 0 | CDK10 = 0 | CDK2 = 0 | CDK3 = 0 | CDK4 = 0 | CDK5 = 0 | CDK6 = 0

O=C1c2ccc(Nc3ccc(F)cc3F)cc2CCc2ccc(OC[C@H](O)CO)cc21 [Skepinone-L] (2.5 µM)
inactive: ABL1 = 0 | AKT1 = 0 | ALK 0 | ARAF 0 | AURKA 0 | AURKB 0 | AURKC 0 | BLK 0 | BMX 0 | BRAF 0 | BRAF_V600E 0 | BTK 0 | CAMK2A 0 | CAMK2G 0 | CDK10 = 0 | CDK2 = 0 | CDK3 = 0 | CDK4 = 0 | CDK5 = 0 | CDK6 = 0

CC(=O)N1CCN(c2cc(-c3cc(C(F)(F)F)c4c(N)ncnn34)ccc2C#N)C(=O)C1(C)C (10 µM)
inactive: ABL1 = 0 | AKT1 = 0 | ALK 0 | ARAF 0 | AURKA 0 | AURKB 0 | AURKC 0 | BLK 0 | BMX 0 | BRAF 0 | BRAF_V600E 0 | BTK 0 | CAMK2A 0 | CAMK2G 0 | CDK10 = 0 | CDK2 = 0 | CDK3 = 0 | CDK4 = 0 | CDK5 = 0 | CDK6 = 0

O=C(Nc1ccc2[nH]nc(-c3ccncc3)c2c1)[C@@H]1CCN(CC(=O)N2CCN(c3ccc(-c4ncccn4)cc3)CC2)C1 (2.5 µM)
inactive: ABL1 = 0 | AKT1 = 0 | ALK 0 | ARAF 0 | AURKA 0 | AURKB 0 | AURKC 0 | BLK 0 | BMX 0 | BRAF 0 | BRAF_V600E 0 | BTK 0 | CAMK2A 0 | CAMK2G 0 | CDK10 = 0 | CDK2 = 0 | CDK3 = 0 | CDK4 = 0 | CDK5 = 0 | CDK6 = 0

Random excerpt: two records from the list, in no set order.
O=C(Nc1ccc2[nH]nc(-c3ccncc3)c2c1)[C@@H]1CCN(CC(=O)N2CCN(c3ccc(-c4ncccn4)cc3)CC2)C1 (2.5 µM)
inactive: ABL1 = 0 | AKT1 = 0 | ALK 0 | ARAF 0 | AURKA 0 | AURKB 0 | AURKC 0 | BLK 0 | BMX 0 | BRAF 0 | BRAF_V600E 0 | BTK 0 | CAMK2A 0 | CAMK2G 0 | CDK10 = 0 | CDK2 = 0 | CDK3 = 0 | CDK4 = 0 | CDK5 = 0 | CDK6 = 0

N#Cc1ccc2ncnc(NC3CCC(N4CCOCC4)CC3)c2c1 (stereo not given) (10 µM)
inactive: ABL1 = 0 | AKT1 = 0 | ALK 0 | ARAF 0 | AURKA 0 | AURKB 0 | AURKC 0 | BLK 0 | BMX 0 | BRAF 0 | BRAF_V600E 0 | BTK 0 | CAMK2A 0 | CAMK2G 0 | CDK10 = 0 | CDK2 = 0 | CDK3 = 0 | CDK4 = 0 | CDK5 = 0 | CDK6 = 0

(listing goes on)

Nc1nccc(Oc2ccc(NC(=O)c3cn(COP(=O)(O)O)cc(-c4ccc(F)cc4)c3=O)cc2F)c1Cl (10 µM)
inactive: ABL1 = 0 | AKT1 = 0 | ALK 0 | ARAF 0 | AURKA 0 | AURKB 0 | AURKC 0 | BLK 0 | BMX 0 | BRAF 0 | BRAF_V600E 0 | BTK 0 | CAMK2A 0 | CAMK2G 0 | CDK10 = 0 | CDK2 = 0 | CDK3 = 0 | CDK4 = 0 | CDK5 = 0 | CDK6 = 0

COc1ccc2[nH]cc(/C=C3\C(=O)Nc4ccc(NC(=O)CCN5CCCCC5)cc43)c2c1 (2.5 µM)
inactive: ABL1 = 0 | AKT1 = 0 | ALK 0 | ARAF 0 | AURKA 0 | AURKB 0 | AURKC 0 | BLK 0 | BMX 0 | BRAF 0 | BRAF_V600E 0 | BTK 0 | CAMK2A 0 | CAMK2G 0 | CDK10 = 0 | CDK2 = 0 | CDK3 = 0 | CDK4 = 0 | CDK5 = 0 | CDK6 = 0

COc1ccc([C@@H]2CC(=O)c3c(O)cc(O)cc3O2)cc1O [Hesperetin] (10 µM)
inactive: ABL1 = 0 | AKT1 = 0 | ALK 0 | ARAF 0 | AURKA 0 | AURKB 0 | AURKC 0 | BLK 0 | BMX 0 | BRAF 0 | BRAF_V600E 0 | BTK 0 | CAMK2A 0 | CAMK2G 0 | CDK10 = 0 | CDK2 = 0 | CDK3 = 0 | CDK4 = 0 | CDK5 = 0 | CDK6 = 0
